Source: PubChem BioAssay AID1508600 (Functional Genomics Laboratory (NCATS/FGL), 2020)
Out of some 53,000 sequences screened, about 3,700 (7%) were called active.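 Rule for the calls: active = gene knockdowns whose robust z-score for IL-1 alpha signal is at least 2 or at most -2, so actives lie on both sides; inactive = the rest.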 Some of the results follow.

Experiment: Components of the Cytosolic LPS Sensing Pathway: Gene Identification via Genome-wide siRNA Screen;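 note: robust z of the log signal after scaling to non-targeting control siRNA wells of the plate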
Conditions: RAW264.7 macrophages, IL-1a HTRF, actives lie on both sides, screened at 100 nM (by protocol), cells primed 5 h with Pam3CSK4 first
Method in brief: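 Supernatant IL-1a by HTRF from RAW264.7 cells primed with Pam3CSK4 (5 hours) and transfected with LipidA (24 hour) after 48h siRNA knockdown at 100 nM; cell viability checked with CellTiter-Glo.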

Row | Sequence | z-score
1 | GGUGAGAAGAUGUCUCUUATT against Olfr103 | inactive: -0.662
2 | GGAAGAAACUGAGAAACUGTT against Fam205c | inactive: 0.48
3 | CCAUGGACUUUCUCGAAGATT against Ceacam11 | inactive: 0.612
4 | GGGCGAGUUCAACUGAGACTT against Hapln3 | inactive: -0.876
5 | GCCAUGUGUCUCACAAGUCTT against Sprr1b | inactive: -0.0338
6 | GGAAACAAGGAUAUUCUUUTT against Fanca | inactive: 0.859
7 | CCAUUACACAAAGUUUUGCTT against Stard6 | inactive: 0.88
8 | GCCAUUGGUUGGGAUAAACTT against Fancl | inactive: 0.513
9 | GCAUCAUUAGUGGUGUAACTT against Aph1a | inactive: -0.401
10 | CGCCUACUGCUUCAGGAUATT against Cgrrf1 | inactive: 1.27
11 | CCACCUUCGGUUCAACUAUTT against Gal3st2 | inactive: 1.95
12 | GGAGUUAAUCAAAGCUUUGTT against Rprd1b | inactive: 1.01
13 | GGUGGGCUACGAACUAAAGTT against Prpf31 | inactive: 0.664
14 | GGAGAUCCACUUCCUCAAGTT against B3gnt7 | inactive: -0.386
15 | GGAUGAAAUGGAAGAAAAUTT against Barx1 | inactive: -0.564
16 | GACUAGGACACUGACCCUCTT against Ifna12 | inactive: -0.0354
17 | CCACCUACCAAAGCAGAAGTT against Cep112 | inactive: -1.71
18 | GGAUUACCUAAAUUUAGGATT against Hfm1 | inactive: 0.14
19 | GCACAGAAAUAUUAAAGUCTT against Foxp4 | inactive: -1.7
20 | AAAGUAAGAGACUACGCUCTT against H2-Q2 | inactive: 1.89
21 | GGGAGAAGGUAAGUGCAUGTT against Golga7b | inactive: -0.343
22 | GGCAAAUAUAUCCUCUUUGTT against Gpx3 | inactive: 0.213
23 | GAUGCUAUCUGGCUUUCUUTT against Olfr981 | inactive: -0.889

Three entries from above, tab-delimited:
Row	Sequence	z-score
5	GCCAUGUGUCUCACAAGUCTT against Sprr1b	inactive: -0.0338
11	CCACCUUCGGUUCAACUAUTT against Gal3st2	inactive: 1.95
23	GAUGCUAUCUGGCUUUCUUTT against Olfr981	inactive: -0.889

The list continues:

Row | Sequence | z-score
24 | GGAAGACUGGGAAUAUAUCTT against Gga3 | inactive: -1.69
25 | GCCUCGUGUUGAAUCUUAATT against Pmp22 | inactive: 0.411
26 | GCCCAAAAAAGCUCAGAGUTT against Brcc3 | inactive: -0.351
27 | CCGGGCAAUUCAGCUGAACTT against Igsf3 | inactive: -0.872
28 | GUACUUUCCGCUGUUCCUCTT against Ltc4s | inactive: -0.736
29 | GCGAAGUUCCUGAGAUGGATT against Irf8 | inactive: 0.342
30 | CCUGGAGUACAUAAAAGAUTT against Sh2d1a | inactive: 0.0604
31 | CCCACAGUGCAAAAAUGACTT against Olfr663 | active: -2.26
32 | GGCUUGUUCCUGUUCCUCUTT against Ndufc2 | inactive: -0.716
33 | GGUGGUAACCAAUCAUUACTT against Cd200r1 | inactive: -0.296
34 | CCUUUGUUACCACCACCAUTT against Olfr1331 | inactive: 1.46
35 | GGAAAUCAAGGAGCAGGAATT against S100b | inactive: 0.418
36 | GCUGAGCAUCCAGUGUAGUTT against A3galt2 | inactive: 0.144
37 | GGUUUGAAGAUGAUGCCUCTT against Nfkbil1 | inactive: -0.848
38 | GGAAUUCAUUGAGUCUUGUTT against Kcnip2 | inactive: 0.741
39 | CGACAGCAAAGUGGUUAAGTT against Upk2 | inactive: 0.145
40 | GGCUUUCUCCCAGCAAUAGTT against Scrt1 | inactive: -1.97
41 | GGGAACAAUCAAAAUUGGATT against Mta3 | inactive: -0.207
42 | GGGAAUACAUUUUAUCUUCTT against Cpox | inactive: -0.16
43 | GGCAAUGCUGUCCUACUAUTT against Map2k5 | inactive: -1.19
44 | CCACUAUGGCGACCAGAUUTT against Mfap2 | inactive: 0.0375
45 | GCUAUGUGAAUUUGUAUGATT against Parp11 | inactive: 0.398
46 | GGCUGUUGUCAAUCCAGUUTT against Krtap5-4 | inactive: 0.686

Row | Sequence | z-score
47 | GGCAGUCACACAGUUUGAATT against Bend6 | inactive: 0.129
48 | GGUUGUAGGAGAGGUAGAGTT against Sh3kbp1 | inactive: 1.17
49 | GCUAGGAACGAGGAGCUAATT against Prrt3 | inactive: 1.07
50 | GGUCGAAGUAUUGGAAAAUTT against Hesx1 | inactive: -1.71
51 | GCUCUGUUAAGGAAGAACATT against Safb2 | active: 2.02
52 | CCUACCUCACCGUAACUGUTT against Celsr1 | inactive: -1.22
53 | GCAAAUCAUUUAGGACCCATT against Amer2 | active: -2.54
54 | GGGUGCUACAAAAUUUGGATT against Arfgap1 | inactive: 1.46
55 | CCAUUAUAGAUCGUCAAUATT against Nlrp9c | inactive: -1
56 | GGACCUGAGAGUUGUUUUGTT against Faim | inactive: 0.862
57 | GGAAGUAAAAGAGGCUUUUTT against Olfr432 | inactive: 0.198
58 | GGGAGAACAGUGUUCAGAGTT against Bhlha15 | inactive: -0.151
59 | CCUGGUAUCCAAGAGGAAGTT against Myt1 | active: 2.52
60 | CCGAAUCUGUCGUCAAGGUTT against Trem3 | inactive: 0.552
61 | GGAGUUAUUCUGUUCUCUCTT against Efcab5 | inactive: 0.119
62 | CGGCCAUUUACCAUACGUUTT against Slc15a1 | inactive: -1.05
63 | GCUCCUUCCCGUUUCUAGATT against Tex47 | inactive: -1.79
64 | GGACAAAAGGCUGAGCAUCTT against Flt1 | inactive: -0.235
65 | CCCACCCAGGCAAUAAAAUTT against Fstl3 | inactive: 0.105
66 | GGGUUAUGGUAGAUUAUCUTT against Tor4a | inactive: -0.376
67 | GCGAUUUGGCUUGCCAAGATT against Zfp622 | inactive: -0.468
68 | GGCUACAUCCCUGAACACUTT against Ndufb5 | inactive: 0.231
